Measured values reported in patent US20250290928A1, “METHOD, KIT AND DEVICE FOR DETECTING EXTRACELLULAR VESICLES” (priority 2022, published 2025).

System: MMP in the MDA-MB-231-derived extracellular vesicles
Assay: Digital detection of MDA-MB-231-derived extracellular vesicles through MMP activity in wells (SB substrates)
Assay type: biochemical, Human
Settings: 24 hr; for Double-positive ratio 1 Average / Double-positive ratio 2 Average / Double-positive ratio 3 Average / SB Expected value λ Average: MP with #2T, average of the results under the three conditions; for Double-positive ratio 1 (double-positives with respect to all the positives) / Double-positive ratio 2 (double-positives with respect to the positives for any one of SB2, SB6, SB7, SB9, and SB10) / Double-positive ratio 3 (double-positives with respect to the positives for Custom #2T) / Expected value λ / Number of positives / Positive ratio / Expected value λ (×1): MP; for Expected value λ (×1): at x1
Experimental: The concentration of the solution is 10 μg/mL. […] The solution was further diluted 2-fold to prepare a standard sample at a concentration of x1/4, further diluted 3-fold to prepare a standard sample at a concentration of x1/12, and further diluted 3-fold to prepare a standard sample at a concentration of x1/36. Thus, the standard samples with four concentrations were prepared.
In addition, 1 mM Alexa Fluor 647 was used as a standard fluorescent substance, and each of the MMP14 detection solutions contained the standard fluorescent substance at a final concentration of 2 μM.
50 μL of each of the MMP detection solutions was added to 50 μL of each of the samples, a reaction was performed at 30° C., and MMP activity was evaluated.

Substance: QXL520-Pro-Leu-Ala-Leu-Trp-Ala-Arg-Lys(5-FAM)-NH2 (PLALWARK; QXL520, 5-FAM, C-terminal amide; printed: Pro-Leu-Ala-Leu-Trp-Ala-Arg-Lys) [SB2]
- Double-positive ratio 1 Average: 0.1357
- Double-positive ratio 2 Average: 0.1626
- Double-positive ratio 3 Average: 0.4475
- SB Expected value λ Average: 0.576
- Double-positive ratio 1 (double-positives with respect to all the positives) (1.25 μM with 1.25 μM #2T): 0.1614
- Double-positive ratio 2 (double-positives with respect to the positives for any one of SB2, SB6, SB7, SB9, and SB10) (1.25 μM with 1.25 μM #2T): 0.1937
- Double-positive ratio 3 (double-positives with respect to the positives for Custom #2T) (1.25 μM with 1.25 μM #2T): 0.4919
- Expected value λ (1.25 μM with 1.25 μM #2T): 0.5879
- Number of positives (1.25 μM with 1.25 μM #2T): 12,625
- Positive ratio (1.25 μM with 1.25 μM #2T): 0.4445
- Expected value λ (×1) (1.25 μM with 1.25 μM #2T): 1.764
- Double-positive ratio 1 (double-positives with respect to all the positives) (2.5 μM with 2.5 μM #2T): 0.09855
- Double-positive ratio 2 (double-positives with respect to the positives for any one of SB2, SB6, SB7, SB9, and SB10) (2.5 μM with 2.5 μM #2T): 0.1259
- Double-positive ratio 3 (double-positives with respect to the positives for Custom #2T) (2.5 μM with 2.5 μM #2T): 0.3119
- Expected value λ (2.5 μM with 2.5 μM #2T): 0.5182
- Number of positives (2.5 μM with 2.5 μM #2T): 11,435
- Positive ratio (2.5 μM with 2.5 μM #2T): 0.4044
- Expected value λ (×1) (2.5 μM with 2.5 μM #2T): 1.555
- Double-positive ratio 1 (double-positives with respect to all the positives) (5 μM with 5 μM #2T): 0.1471
- Double-positive ratio 2 (double-positives with respect to the positives for any one of SB2, SB6, SB7, SB9, and SB10) (5 μM with 5 μM #2T): 0.1683
- Double-positive ratio 3 (double-positives with respect to the positives for Custom #2T) (5 μM with 5 μM #2T): 0.5386
- Expected value λ (5 μM with 5 μM #2T): 0.6219
- Number of positives (5 μM with 5 μM #2T): 13,115
- Positive ratio (5 μM with 5 μM #2T): 0.4631
- Expected value λ (×1) (5 μM with 5 μM #2T): 1.866

Substance: QXL520-Pro-Leu-Gly-Met-Trp-Ser-Arg-Lys(5-FAM)-NH2 (PLGMWSRK; QXL520, 5-FAM, C-terminal amide; printed: Pro-Leu-Gly-Met-Trp-Ser-Arg-Lys) [SB6]
- Double-positive ratio 1 Average: 0.1321
- Double-positive ratio 2 Average: 0.1542
- Double-positive ratio 3 Average: 0.4855
- SB Expected value λ Average: 0.7282
- Double-positive ratio 1 (double-positives with respect to all the positives) (1.25 μM with 1.25 μM #2T): 0.1612
- Double-positive ratio 2 (double-positives with respect to the positives for any one of SB2, SB6, SB7, SB9, and SB10) (1.25 μM with 1.25 μM #2T): 0.1955
- Double-positive ratio 3 (double-positives with respect to the positives for Custom #2T) (1.25 μM with 1.25 μM #2T): 0.4785
- Expected value λ (1.25 μM with 1.25 μM #2T): 0.5463
- Number of positives (1.25 μM with 1.25 μM #2T): 11,927
- Positive ratio (1.25 μM with 1.25 μM #2T): 0.4209
- Expected value λ (×1) (1.25 μM with 1.25 μM #2T): 1.639
- Double-positive ratio 1 (double-positives with respect to all the positives) (2.5 μM with 2.5 μM #2T): 0.09501
- Double-positive ratio 2 (double-positives with respect to the positives for any one of SB2, SB6, SB7, SB9, and SB10) (2.5 μM with 2.5 μM #2T): 0.1117
- Double-positive ratio 3 (double-positives with respect to the positives for Custom #2T) (2.5 μM with 2.5 μM #2T): 0.3889
- Expected value λ (2.5 μM with 2.5 μM #2T): 0.9683
- Number of positives (2.5 μM with 2.5 μM #2T): 17,610
- Positive ratio (2.5 μM with 2.5 μM #2T): 0.6203
- Expected value λ (×1) (2.5 μM with 2.5 μM #2T): 2.905
- Double-positive ratio 1 (double-positives with respect to all the positives) (5 μM with 5 μM #2T): 0.1403
- Double-positive ratio 2 (double-positives with respect to the positives for any one of SB2, SB6, SB7, SB9, and SB10) (5 μM with 5 μM #2T): 0.1555
- Double-positive ratio 3 (double-positives with respect to the positives for Custom #2T) (5 μM with 5 μM #2T): 0.5892
- Expected value λ (5 μM with 5 μM #2T): 0.6698
- Number of positives (5 μM with 5 μM #2T): 13,872
- Positive ratio (5 μM with 5 μM #2T): 0.4882
- Expected value λ (×1) (5 μM with 5 μM #2T): 2.01
